According to article doi:10.1101/2020.04.20.049957:
Where two headings read alike, the source gives them in different places. No constants are given. Whether binding was seen depends on the method and setting. Binding seen in cells or lysates may run through a third protein. Some binding calls cover weakened binding; strength is not graded here.

By UniProt entry, the sequences of proteins in these tests, tags left out. Residues count along the entry.
UniProt P56726, residues 33-793: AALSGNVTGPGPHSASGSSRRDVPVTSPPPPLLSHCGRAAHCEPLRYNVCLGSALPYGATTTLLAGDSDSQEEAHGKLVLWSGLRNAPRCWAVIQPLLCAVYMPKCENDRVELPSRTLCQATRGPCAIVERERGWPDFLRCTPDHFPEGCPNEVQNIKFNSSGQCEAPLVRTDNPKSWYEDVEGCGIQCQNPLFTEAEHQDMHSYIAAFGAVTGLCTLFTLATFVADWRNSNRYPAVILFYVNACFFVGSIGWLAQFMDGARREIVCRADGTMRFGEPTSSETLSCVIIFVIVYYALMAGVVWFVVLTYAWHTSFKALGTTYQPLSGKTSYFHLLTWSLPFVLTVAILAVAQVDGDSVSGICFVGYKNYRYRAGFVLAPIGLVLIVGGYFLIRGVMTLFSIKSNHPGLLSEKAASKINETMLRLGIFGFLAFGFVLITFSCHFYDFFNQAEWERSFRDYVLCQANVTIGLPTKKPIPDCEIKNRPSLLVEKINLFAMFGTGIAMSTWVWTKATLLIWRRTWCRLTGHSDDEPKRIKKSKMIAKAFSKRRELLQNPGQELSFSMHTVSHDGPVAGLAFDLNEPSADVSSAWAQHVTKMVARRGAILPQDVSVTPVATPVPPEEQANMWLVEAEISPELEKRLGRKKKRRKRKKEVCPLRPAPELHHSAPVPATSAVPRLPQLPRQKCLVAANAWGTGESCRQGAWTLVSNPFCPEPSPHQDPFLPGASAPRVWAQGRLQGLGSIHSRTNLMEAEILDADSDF
UniProt Q9R0Q3, residues 21-201: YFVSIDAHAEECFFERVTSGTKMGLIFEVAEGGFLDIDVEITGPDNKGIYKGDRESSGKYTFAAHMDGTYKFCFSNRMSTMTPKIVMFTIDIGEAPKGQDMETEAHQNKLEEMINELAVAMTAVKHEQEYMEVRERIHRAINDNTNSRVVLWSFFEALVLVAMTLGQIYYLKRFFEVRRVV
UniProt Q15363, residues 21-201: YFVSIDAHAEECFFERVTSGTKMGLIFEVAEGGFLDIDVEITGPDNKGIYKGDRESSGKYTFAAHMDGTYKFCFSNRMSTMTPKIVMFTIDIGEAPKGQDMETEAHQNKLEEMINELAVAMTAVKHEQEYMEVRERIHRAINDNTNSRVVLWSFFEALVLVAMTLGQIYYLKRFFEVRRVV

Assays:
[1] = target: HA-SMO (mouse Smoothened, N-terminally HA tagged) (mouse) (UniProt P56726); experiment: co-IP
[2] = target: SMO-HA (mouse Smoothened, C-terminally HA tagged) (mouse) (UniProt P56726); experiment: co-IP
[3] = target: HA-SMO (mouse Smoothened, N-terminally HA tagged) (mouse) (UniProt P56726); experiment: co-IP; remark: listed apart in the source
[4] = target: SMO-HA (mouse Smoothened, C-terminally HA tagged) (mouse) (UniProt P56726); experiment: co-IP; remark: listed apart in the source
[5] = target: SMO-HA (mouse Smoothened, C-terminally HA tagged) (mouse) (UniProt P56726); experiment: co-IP; remark: listed apart in the source
[6] = target: wild type SMO (in 293T cells) (UniProt P56726); experiment: pull-down

binding [1] | binding [2] | binding [3] | binding [4] | binding [5] | binding [6] | Molecule
binds weakly | binds weakly | binds | binds | binds | – | TMED2 (endogenous, mouse ESCs and NPCs) (from UniProt Q9R0Q3 21-201)
– | – | – | – | – | binds | TMED2 (in 293T cells) (from UniProt Q15363 21-201)
– | – | – | – | no binding | – | TMED10 (endogenous, mouse ESCs) (protein, UniProt Q9D1D4 32-219) ISFHLPVNSRKCLREEIHKDLLVTGAYEITDQSGGAGGLRTHLKITDSAGHILYAKEDATKGKFAFTTEDYDMFEVCFESKGTGRIPDQLVILDMKHGVEAKNYEEIAKVEKLKPLEVELRRLEDLSESIVNDFAYMKKREEEMRDTNESTNTRVLYFSIFSMFCLIGLATWQVFYLRRFFKAKKLIE
